# PubChem BioAssay AID1224830 | NIAID | 2016
# Aim: 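Regulators of TLR4 signalling towards TNF-alpha in macrophage-like cells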 (primary screen)
# System: human THP-1 monocytic leukaemia cells, TNF dual-luciferase reporter clone, PMA-differentiated to macrophage-like cells
# Reagent: siRNA pool against human genes, 50 nM
# Duration: LPS for 4 h, given about 3 days after siRNA transfection
# Conditions: bacterial LPS (TLR4 ligand), 10 ng/ml
# Measurement: 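TNF firefly reporter luminescence divided by renilla, normalised to the plate median, then turned into a robust z-score for each replicate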
# Reading the numbers: TNF reporter robust z-score: higher = stronger TNF reporter response to LPS
# Active means: 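a well is active when its z-score exceeds 2.8 or falls below -1.5; control wells carry no call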
# This is one part, drawn at random, of about 18,000 reagents tested. Of all reagents, about 2,900 (16%) were called active. 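Calls are made per well; low scores hint the gene aids the LPS response, high scores that it dampens it.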 A number with no mark means an inactive call. Repeated entries: four replicate wells of each siRNA pool. No sequences are given here.
gene,TNF reporter robust z-score
GLDC,-0.26
GLDC,-0.1
GLDC,0.86
GLDC,1.25
PAK1IP1,-0.7
PAK1IP1,0.01
PAK1IP1,0.68
PAK1IP1,-0.24
DDX54,-0.06
DDX54,-0.3
DDX54,-0.6
DDX54,-0.34
RCAN1,0.47
RCAN1,-0.32
RCAN1,-0.1
RCAN1,-0.31
PGC,-0.86
PGC,-0.59
PGC,-0.87
PGC,0.52
JKAMP,-1
JKAMP,-0.92
JKAMP,-0.43
JKAMP,-0.45
VPS52,-0.44
VPS52,-0.53
VPS52,-0.77
VPS52,-0.99
TRAM1,0.41
TRAM1,-0.56
TRAM1,-0.76
TRAM1,-0.82
EPS8L2,-1.07
EPS8L2,-1.17
EPS8L2,-0.8
EPS8L2,-0.71
ANKDD1A,-0.53
ANKDD1A,-0.19
ANKDD1A,-0.62
ANKDD1A,-0.39

Continued, starting with the last 2 of the part before.
gene,TNF reporter robust z-score
ANKDD1A,-0.62
ANKDD1A,-0.39
EDEM3,0.28
EDEM3,0.48
EDEM3,-0.97
EDEM3,1.66
WDTC1,-0.15
WDTC1,-0.21
WDTC1,-0.01
WDTC1,-0.19
APOF,-1.96 (active)
APOF,-0.94
APOF,-1.48
APOF,-0.11
BAX,-1.18
BAX,-0.69
BAX,-0.34
BAX,0.87
ZNF768,1.18
ZNF768,0.31
ZNF768,0.14
ZNF768,1.17
SCML2,-0.79
SCML2,-0.88
SCML2,-0.71
SCML2,-0.49
SLC35F4,0.42
SLC35F4,1.66
SLC35F4,2.85 (active)
SLC35F4,0.26
SCAND3,1.16
SCAND3,1.07
SCAND3,0.72
SCAND3,2.87 (active)
SYTL2,-0.36
SYTL2,-0.63
SYTL2,-1.04
SYTL2,-0.86
SORBS1,-0.1
SORBS1,-0.67
SORBS1,0.02
SORBS1,-0.45
KLK14,1.97
KLK14,1.22
KLK14,3.13 (active)
KLK14,3.78 (active)
CCDC68,3.39 (active)
CCDC68,1.6
CCDC68,2.64
CCDC68,1.87
CIMIP4,0.44
CIMIP4,2.77
CIMIP4,-1
CIMIP4,0.42
VWC2,-0.43
VWC2,1.03
VWC2,2.16
VWC2,1.02
NDUFB9,-1.25
NDUFB9,-0.42
NDUFB9,-0.86
NDUFB9,-1.17
OR51B2,-0.8
OR51B2,-1.49
OR51B2,-0.76
OR51B2,-0.65
MDH1,-1.17
MDH1,-0.55
MDH1,-0.68
MDH1,-0.56
TRIP6,-0.83
TRIP6,-0.6
TRIP6,-0.61
TRIP6,-0.79
